Test results from patent US20120066777A1 (SHIONOGI, published 2012).
These are yes or no findings as the source states them, for the method shown. Some binding calls cover weakened binding; strength is not graded here.

Tests used:
[1] = molecular target: T1, human recombinant CCDC3 protein (human, UniProt Q9BQI4 22-270); assay: western blot, reduced SDS-PAGE, 50 ng protein
T1 construct: Secreted from Freestyle293 cells, purified from culture supernatant, 3xFlag tag removed with thrombin (31 kDa); the C-terminus at 270 follows from the C-terminus peptide 259-270; Also used biotin-labelled (PEO-maleimide biotin) as tracer; also called human CCDC3 recombinant protein; human CCDC3 protein
T1 sequence: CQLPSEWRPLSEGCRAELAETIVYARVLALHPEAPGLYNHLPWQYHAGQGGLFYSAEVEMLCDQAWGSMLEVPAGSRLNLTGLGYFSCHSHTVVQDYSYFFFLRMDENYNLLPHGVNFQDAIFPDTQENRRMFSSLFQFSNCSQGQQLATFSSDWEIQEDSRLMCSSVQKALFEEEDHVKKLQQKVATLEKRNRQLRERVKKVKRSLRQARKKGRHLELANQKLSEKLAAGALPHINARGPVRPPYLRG

[2] = molecular target: T1, human recombinant CCDC3 protein; assay: hybridoma screening ELISA, antibody captured on anti-mouse IgG plate, biotin tracer
[3] = molecular target: T1, human recombinant CCDC3 protein; assay: chemiluminescence sandwich ELISA, detection antibody

B1: 11E10 antibody (antibody, IgG2b, V domains shown)
VH: QVQLQQSGPELVKPGASVKISCKASGYSFRSYYIHWMKQSPGQGLEWIAWIYPGGGKIYYNDNEKFKDKVTLTADTSSSTAYMQLTGLTSEDSAVYFCARWGGYYVGSILDYWGQGTSVTVSS
VL: DGDIVMTQSQKFLSTSVGDRVSVTCKASQNVDNNVAWYQQRPGQSPKPLIYLTSSRYSGVPDRFTGSGSGTDFTLTITNVQSEDLAEYFCQQYKTYPLTFSVGTKLELKRA
notes: Mouse hybridoma monoclonal, isotype IgG2b; From a mouse immunized with antigen 2 (human recombinant CCDC3-KLH conjugate); also called human anti-CCDC3 antibody 11E10
With B1 the binding [1] was “binds” and the binding [2] was “binds”.

B2: alkaliphosphatase-labeled 11E10 Fab' antibody (Fab, V domains shown)
VH: QVQLQQSGPELVKPGASVKISCKASGYSFRSYYIHWMKQSPGQGLEWIAWIYPGGGKIYYNDNEKFKDKVTLTADTSSSTAYMQLTGLTSEDSAVYFCARWGGYYVGSILDYWGQGTSVTVSS
VL: DGDIVMTQSQKFLSTSVGDRVSVTCKASQNVDNNVAWYQQRPGQSPKPLIYLTSSRYSGVPDRFTGSGSGTDFTLTITNVQSEDLAEYFCQQYKTYPLTFSVGTKLELKRA
modifications: alkaliphosphatase (ALP) coupled through sulfo-SMCC maleimide to the Fab' thiol
For B2, the binding [3] was “binds”.
